From US6632418B2, “Radioligands and their use for identifying potassium channel modulators” (Abbott Laboratories, priority 2001, dated 2003) come the findings set out here.

The subject of this series is ATP-sensitive potassium channel. As to the kind of experiment: Comparison of the profile of the novel radioligand with [^3H]P1075 in membrane preparations. Format: binding.

In the case of `O=C1COCC2=C1C(c1ccc(F)c([125I])c1)C1=C(CCS1(=O)=O)N2` (stereo not shown) [Example 1, 9-(4-fluoro-3-[I^125]iodophenyl)-2,3,5,9-tetrahydro-4H-pyrano[3,4-b]thieno[2,3-e]pyridin-8(7H)-one 1,1-dioxide], the specific bound (membrane preparations) is 75-90%. Moreover, the “Ligand Specifically Bound” value (radioligand comparison table) is 75%-90%. Further, for the setting “radioligand comparison table, radioligand concentration 5 nM ([^3H]P1075) or 0.5-1 nM ([^125I]A-312110)”, the “Specific Signal” value turned out to be 6000 cpm. Moreover, under “typical specific signal”, the “specific signal relative to [^3H]P1075” value stood at 20 fold.
